Measured values: patent US20150111836
The comparison behind a weaker result is the experiment's own reference, which may not be listed here.

Protein sequences, listed by entry. Tags and fused reporters are not part of them. Lines headed by an entry give the natural chain unless they say otherwise; changes in a name come on top.
UniProt Q9HC16: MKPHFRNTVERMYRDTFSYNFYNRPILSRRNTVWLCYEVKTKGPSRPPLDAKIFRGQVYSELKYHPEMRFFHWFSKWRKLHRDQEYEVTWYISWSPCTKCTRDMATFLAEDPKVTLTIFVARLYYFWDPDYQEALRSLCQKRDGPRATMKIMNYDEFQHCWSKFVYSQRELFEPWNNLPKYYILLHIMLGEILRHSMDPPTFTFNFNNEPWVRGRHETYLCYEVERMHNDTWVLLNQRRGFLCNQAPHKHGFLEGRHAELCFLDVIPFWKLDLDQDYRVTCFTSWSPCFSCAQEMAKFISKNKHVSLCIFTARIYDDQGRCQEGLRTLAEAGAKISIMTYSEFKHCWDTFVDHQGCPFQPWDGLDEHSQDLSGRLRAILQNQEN

Target: APOBEC3G (A3G) (Homo sapiens) (UniProt Q9HC16)
Experiment: EMSA
Settings: purified recombinant protein, protein details: C-terminal Myc-His6, expressed in 293T cells

GGATTGGTTGGTTATTTGTTTAAGGAAGGAAGAAGGAAGGCCCAATAAGGGAAGGCCCAATAAGTGGGAAGGCCCAATAAGTGAATTAAATAAGTGATTGATAAATAAGTGATTGATAAGTTGATTAAATAGTTGGAAGTTATGTTTGGTAGATTGATGG / ACCTTCCTTAAACAAATAACCAACCAATCC / CCATCAATCTACCAAACATAACTTCCATCA [S160 with both ends double-stranded]
binding result (markedly reduced when both termini double-stranded, variant of …): binds more weakly

GGATTGGTTGGTTATTTGTTTAAGGAAGGAAGAAGGAAGGCCCAATAAGGGAAGGCCCAATAAGTGGGAAGGCCCAATAAGTGAATTAAATAAGTGATTGATAAATAAGTGATTGATAAGTTGATTAAATAGTTGGAAGTTATGTTTGGTAGATTGATGG / ACCTTCCTTAAACAAATAACCAACCAATCC [S160 with 5' end double-stranded]
binding result (slightly reduced without 5' ssDNA terminus, variant of S160): binds more weakly
